According to patent publication US7915316B2, “Sulfonamides” (Allergan, Inc, priority 2005, dated 2011):
At least one structure is not confirmed: it was looked up by name or label, or the drawing left a doubt.

What was measured:
EP3 = molecular target: T1, EP3 (Homo sapiens, UniProt P43115); test: activity at EP3 receptor; details: Table 2
T1 sequence (P43115 1-390): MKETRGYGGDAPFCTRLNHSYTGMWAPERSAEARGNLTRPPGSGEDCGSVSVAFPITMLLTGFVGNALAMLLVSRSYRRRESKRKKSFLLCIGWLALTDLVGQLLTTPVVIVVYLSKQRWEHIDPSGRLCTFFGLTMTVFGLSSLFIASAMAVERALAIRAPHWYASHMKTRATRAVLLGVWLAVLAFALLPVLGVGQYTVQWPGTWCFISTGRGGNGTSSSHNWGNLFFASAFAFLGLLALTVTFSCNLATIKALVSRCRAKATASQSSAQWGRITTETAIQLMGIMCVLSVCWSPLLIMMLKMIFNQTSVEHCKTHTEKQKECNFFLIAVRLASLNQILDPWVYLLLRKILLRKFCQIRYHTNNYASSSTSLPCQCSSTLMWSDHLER

DP = molecular target: T2, DP (Homo sapiens, UniProt Q13258); test: activity at DP receptor; details: Table 2
T2 sequence (Q13258 1-359): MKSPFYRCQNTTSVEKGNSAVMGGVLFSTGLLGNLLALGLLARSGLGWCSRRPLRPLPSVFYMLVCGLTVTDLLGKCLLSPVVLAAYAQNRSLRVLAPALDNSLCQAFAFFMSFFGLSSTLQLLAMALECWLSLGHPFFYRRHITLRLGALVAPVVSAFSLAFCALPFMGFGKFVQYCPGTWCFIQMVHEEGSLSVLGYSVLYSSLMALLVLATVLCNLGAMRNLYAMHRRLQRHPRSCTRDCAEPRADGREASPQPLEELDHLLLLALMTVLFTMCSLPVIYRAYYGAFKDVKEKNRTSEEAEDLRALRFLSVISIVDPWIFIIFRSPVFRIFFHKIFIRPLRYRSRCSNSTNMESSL

Q: Which results are given for `CCCCCC(O)c1ccc(CN(Cc2ccc(OCC(=O)O)cc2)S(=O)(=O)c2cccnc2)cc1` (centres unmarked)?
A: EP3 (EP3): 1150; DP (DP): 99
